Data as given in PubChem BioAssay AID1259329 (Drosophila RNAi Screening Center, 2017).

- Screen: 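Water reference run beside parallel screens of metal toxicity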
- Cell system: Drosophila S2R+ cells
- Knock-down reagent: long dsRNA against Drosophila genes
- Duration: 5 days (4 days knock-down, then 1 day after water)
- Treatment: water added as vehicle control, no metal, one day before read-out
- Measured: 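After 4 days of knock-down, water was added with no metal, and total ATP was read by luciferase light a day later on two plate copies, as mean z-score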
- Scale: mean ATP z-score: higher = more total ATP, likely more viable cells
- Hit rule: 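Active means the absolute value of the z-score is over 1.5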
Here is one part, drawn at random, of 418 reagents. 20 of all reagents (4.8%) count as active. 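All active calls have high ATP; no reagent fell below -1.5.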 Unmarked entries are inactive. Reagent sequences are not shown. Not stated in the record: the amount of reagent, the dose of the treatment.

Depletion of CG8646 [DRSC07230] gave: mean ATP z-score 0.361.
For Vps16B [DRSC15304], the values are mean ATP z-score -0.19.
For Vps16B [DRSC34692] the deposit lists mean ATP z-score -0.497.
Vps16B [DRSC34693] gave mean ATP z-score -1.01.
Depletion of Xpac [DRSC18730] gave: mean ATP z-score 0.407.
Depletion of Xpac [DRSC25963] gave: mean ATP z-score 0.576.
After knock-down of Xpac [DRSC41029], the screen gave mean ATP z-score -0.659.
With knock-down of VhaPPA1-1 [DRSC24144], the record shows mean ATP z-score 0.587.
Against VhaPPA1-1 [DRSC32232], the values are mean ATP z-score -1.08.
For VhaPPA1-1 [DRSC32233] the deposit lists mean ATP z-score -0.976.
After knock-down of Npc2b [DRSC15464], the screen gave mean ATP z-score 0.454.
Silencing of Wdr24 [DRSC14151] came out at: mean ATP z-score -0.0365.
Against Wdr24 [DRSC36452], the values are mean ATP z-score -1.07.
Against Xpc [DRSC07654] the deposit lists mean ATP z-score 0.973.
For VhaAC39-1 [DRSC27608], the values are mean ATP z-score -0.864.
With knock-down of VhaAC39-1 [DRSC31237] the results were mean ATP z-score -0.171.
After knock-down of VhaAC39-1 [DRSC31238] the results were mean ATP z-score -0.395.
For CG32191 [DRSC10522], the entry reads mean ATP z-score 0.186.
With knock-down of Agxt [DRSC18718] the results were mean ATP z-score -0.498.
After knock-down of Agxt [DRSC26115], the screen gave mean ATP z-score -0.947.

Sorted by “mean ATP z-score” (high to low): 2 of the entries above.
VhaAC39-1 [DRSC31237]: mean ATP z-score = -0.171
VhaAC39-1 [DRSC27608]: mean ATP z-score = -0.864
